Data as given in PubChem BioAssay AID1224830 (NIAID, 2016).
Shown is a random part of about 18,000 deposited reagents. About 2,900 of them (16%) count as active. 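Calls are made per well; low scores hint the gene aids the LPS response, high scores that it dampens it.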 Repeated entries: four replicate wells of each siRNA pool.

Test: 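Genes whose knock-down alters the TNF-alpha reporter response to LPS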 (primary screen)
System: human THP-1 monocytic leukaemia cells, TNF dual-luciferase reporter clone, PMA-differentiated to macrophage-like cells
Reagent: siRNA pool against human genes, 50 nM
Timing: LPS for 4 h, given about 3 days after siRNA transfection
Challenge: bacterial LPS (TLR4 ligand), 10 ng/ml
Measured: 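TNF firefly reporter luminescence divided by renilla, normalised to the plate median, then turned into a robust z-score for each replicate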
Reading the numbers: TNF reporter robust z-score: higher = stronger TNF reporter response to LPS
Rule for the call: 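Each well counts as active if its z-score is over 2.8 or under -1.5; controls are left without a call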

Silencing of MGARP (GeneID 84709) gave: TNF reporter robust z-score 0.94; inactive.
After knock-down of MGARP (GeneID 84709) the results were TNF reporter robust z-score 1.04; inactive.
Silencing of MGARP (GeneID 84709) came out at: TNF reporter robust z-score 0.87; inactive.
Against MGARP (GeneID 84709) the deposit lists TNF reporter robust z-score 0.67; inactive.
For NKRF (GeneID 55922), the entry reads TNF reporter robust z-score 5.65; active.
Knock-down of NKRF (GeneID 55922) came out at: TNF reporter robust z-score 4.24; active.
NKRF (GeneID 55922) scored TNF reporter robust z-score 1.78; inactive.
For NKRF (GeneID 55922) the deposit lists TNF reporter robust z-score 0.96; inactive.
After knock-down of MTFR1 (GeneID 9650), the screen gave TNF reporter robust z-score 0.27; inactive.
For MTFR1 (GeneID 9650) the deposit lists TNF reporter robust z-score 2.12; inactive.
After knock-down of MTFR1 (GeneID 9650), the record shows TNF reporter robust z-score 1.56; inactive.
Knock-down of MTFR1 (GeneID 9650) came out at: TNF reporter robust z-score 0.4; inactive.

3 of these entries, reformatted.
| target gene | TNF reporter robust z-score | Outcome |
| --- | --- | --- |
| MTFR1 (GeneID 9650) | 0.27 | inactive |
| MTFR1 (GeneID 9650) | 2.12 | inactive |
| MTFR1 (GeneID 9650) | 1.56 | inactive |

The list goes on.
With knock-down of ADAMTS19 (GeneID 171019), the screen gave TNF reporter robust z-score 1.9; inactive.
For ADAMTS19 (GeneID 171019), the entry reads TNF reporter robust z-score 1.03; inactive.
ADAMTS19 (GeneID 171019) showed TNF reporter robust z-score 1.26; inactive.
For ADAMTS19 (GeneID 171019) the deposit lists TNF reporter robust z-score 0.33; inactive.
With knock-down of TMEM120B (GeneID 144404) the results were TNF reporter robust z-score 0.58; inactive.
Against TMEM120B (GeneID 144404), the values are TNF reporter robust z-score -0.66; inactive.
For TMEM120B (GeneID 144404), the values are TNF reporter robust z-score 0.75; inactive.
With knock-down of TMEM120B (GeneID 144404) the results were TNF reporter robust z-score 0.59; inactive.
LIN54 (GeneID 132660) scored TNF reporter robust z-score 0.32; inactive.
LIN54 (GeneID 132660) scored TNF reporter robust z-score -0.25; inactive.
Knock-down of LIN54 (GeneID 132660) gave: TNF reporter robust z-score -0.09; inactive.
For LIN54 (GeneID 132660), the values are TNF reporter robust z-score -0.16; inactive.
For MYH3 (GeneID 4621), the values are TNF reporter robust z-score 0.91; inactive.
MYH3 (GeneID 4621) showed TNF reporter robust z-score 1.02; inactive.
MYH3 (GeneID 4621) scored TNF reporter robust z-score 1.1; inactive.
Depletion of MYH3 (GeneID 4621) resulted in: TNF reporter robust z-score 1.45; inactive.
After knock-down of TMEM41B (GeneID 440026), the screen gave TNF reporter robust z-score 0.21; inactive.
TMEM41B (GeneID 440026) showed TNF reporter robust z-score -0.67; inactive.
Knock-down of TMEM41B (GeneID 440026) came out at: TNF reporter robust z-score 0.04; inactive.
TMEM41B (GeneID 440026) gave TNF reporter robust z-score 0.99; inactive.
